These are yes or no findings as the source states them, for the method shown. In cells and extracts the contact can be indirect. A yes stands for co-enrichment or nearness to the bait. Other partners may have been found.

The experiment addresses T1, BRPF1 bromodomain N651AzF (UniProt P55201).
T1 sequence (chain, 4-azido-L-phenylalanine (AzF) at 651): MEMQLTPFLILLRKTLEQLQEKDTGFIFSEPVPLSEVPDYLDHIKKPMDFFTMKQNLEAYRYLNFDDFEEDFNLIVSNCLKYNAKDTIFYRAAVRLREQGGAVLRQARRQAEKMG
Kind of experiment: cross-linking + affinity purification with mass spectrometry; ~1 mg lysate of trichostatin A treated HEK293T cells with 50 μM BRPF1-N651AzF; 365 nm UV; Ni-NTA pull-down, washes with 400 mM KCl and Triton X-100; in-solution trypsin digestion, LC-MS/MS; +UV against -UV; only the target purified.

B1: ACSS1 (enzyme, UniProt Q9NUB1 38-689)
chain: ASGPSGSAPAVAAAAAQPGSYPALSAQAAREPAAFWGPLARDTLVWDTPYHTVWDCDFSTGKIGWFLGGQLNVSVNCLDQHVRKSPESVALIWERDEPGTEVRITYRELLETTCRLANTLKRHGVHRGDRVAIYMPVSPLAVAAMLACARIGAVHTVIFAGFSAESLAGRINDAKCKVVITFNQGLRGGRVVELKKIVDEAVKHCPTVQHVLVAHRTDNKVHMGDLDVPLEQEMAKEDPVCAPESMGSEDMLFMLYTSGSTGMPKGIVHTQAGYLLYAALTHKLVFDHQPGDIFGCVADIGWITGHSYVVYGPLCNGATSVLFESTPVYPNAGRYWETVERLKINQFYGAPTAVRLLLKYGDAWVKKYDRSSLRTLGSVGEPINCEAWEWLHRVVGDSRCTLVDTWWQTETGGICIAPRPSEEGAEILPAMAMRPFFGIVPVLMDEKGSVVEGSNVSGALCISQAWPGMARTIYGDHQRFVDAYFKAYPGYYFTGDGAYRTEGGYYQITGRMDDVINISGHRLGTAEIEDAIADHPAVPESAVIGYPHDIKGEAAFAFIVVKDSAGDSDVVVQELKSMVATKIAKYAVPDEILVVKRLPKTRSGKVMRRLLRKIITSEAQELGDTTTLEDPSIIAEILSVYQKCKDKQAAAK
As for B1, the binding entry is on record as “binds”.

B2: interleukin enhancer-binding factor 3 (ILF3), endogenous (protein, UniProt Q12906 1-894)
chain: MRPMRIFVNDDRHVMAKHSSVYPTQEELEAVQNMVSHTERALKAVSDWIDEQEKGSSEQAESDNMDVPPEDDSKEGAGEQKTEHMTRTLRGVMRVGLVAKGLLLKGDLDLELVLLCKEKPTTALLDKVADNLAIQLAAVTEDKYEILQSVDDAAIVIKNTKEPPLSLTIHLTSPVVREEMEKVLAGETLSVNDPPDVLDRQKCLAALASLRHAKWFQARANGLKSCVIVIRVLRDLCTRVPTWGPLRGWPLELLCEKSIGTANRPMGAGEALRRVLECLASGIVMPDGSGIYDPCEKEATDAIGHLDRQQREDITQSAQHALRLAAFGQLHKVLGMDPLPSKMPKKPKNENPVDYTVQIPPSTTYAITPMKRPMEEDGEEKSPSKKKKKIQKKEEKAEPPQAMNALMRLNQLKPGLQYKLVSQTGPVHAPIFTMSVEVDGNSFEASGPSKKTAKLHVAVKVLQDMGLPTGAEGRDSSKGEDSAEETEAKPAVVAPAPVVEAVSTPSAAFPSDATAEQGPILTKHGKNPVMELNEKRRGLKYELISETGGSHDKRFVMEVEVDGQKFQGAGSNKKVAKAYAALAALEKLFPDTPLALDANKKKRAPVPVRGGPKFAAKPHNPGFGMGGPMHNEVPPPPNLRGRGRGGSIRGRGRGRGFGGANHGGYMNAGAGYGSYGYGGNSATAGYSQFYSNGGHSGNASGGGGGGGGGSSGYGSYYQGDNYNSPVPPKHAGKKQPHGGQQKPSYGSGYQSHQGQQQSYNQSPYSNYGPPQGKQKGYNHGQGSYSYSNSYNSPGGGGGSDYNYESKFNYSGSGGRSGGNSYGSGGASYNPGSHGGYGGGSGGGSSYQGKQGGYSQSNYNSPGSGQNYSGPPSSYQSSQGGYGRNADHSMNYQYR
Consider B2, for which the binding entry is given as “binds”.

Values taken from PMC10789646.
